# Laboratory results reported in US20100303814A1.
# These are yes or no findings as the source states them, for the method shown. Some binding calls cover weakened binding; strength is not graded here.
# T1: variant HnRNPG (cancer-associated variant of heterogeneous ribonucleoprotein G) (human)
# T1 sequence: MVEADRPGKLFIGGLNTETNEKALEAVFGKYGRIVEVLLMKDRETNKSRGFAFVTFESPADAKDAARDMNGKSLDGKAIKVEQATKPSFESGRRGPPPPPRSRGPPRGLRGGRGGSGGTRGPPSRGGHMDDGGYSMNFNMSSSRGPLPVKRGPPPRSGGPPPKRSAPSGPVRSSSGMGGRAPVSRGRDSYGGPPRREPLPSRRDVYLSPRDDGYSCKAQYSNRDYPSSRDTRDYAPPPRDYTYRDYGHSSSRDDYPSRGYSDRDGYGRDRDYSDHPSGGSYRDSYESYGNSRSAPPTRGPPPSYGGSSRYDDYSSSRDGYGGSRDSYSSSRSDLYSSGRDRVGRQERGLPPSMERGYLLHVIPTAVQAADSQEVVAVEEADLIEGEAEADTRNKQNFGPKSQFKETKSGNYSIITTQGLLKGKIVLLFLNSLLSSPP
# B1: VB1-213 monoclonal antibody (antibody, human IgG1, V domains shown)
# VH: EVQLLESGGGLVQPGGSLRLSCAASGFTFRSYAMSWVRQAPGKGLEWVSTISGRGVTTYYADSVKGRFTISRDNSKNTLYLQMNSLRADDTALYYCAKDRTRYYGMDVWGQGTTVTVSS
# VL: SYELTQPPSVSVSPGQTASITCSGNKLGDKYACWYQQKSGQSPVLVIYQDSKRPSGIPERFSGSNSGNTATLTISGTQALDEADYYCQAWDNSTAVFGGGTKLTVLG
# Target: T1, variant HnRNPG (cancer-associated variant of heterogeneous ribonucleoprotein G) (human)
# Assay: immunoprecipitation with VB1-213, MS/MS ion fragmentation
binder,measurement,value
B1,binding,binds
